From PMC5905272
No constants are given. Whether binding was seen depends on the method and setting. Some entries that bind do so weakly or less than the wild type.

Biological target: full-length human KIAA0319 (human) (UniProt Q5VV43)
Assay: SDS-PAGE and western blot; lysates of CAD cells overexpressing hKA, 12% SDS-PAGE under denaturing conditions, blot with R2 antiserum; band at ~300 kDa read as dimer

- binding: binds
B1: full-length human KIAA0319 (protein, UniProt Q5VV43 21-1072)
chain: ARKQCSEGRTYSNAVISPNLETTRIMRVSHTFPVVDCTAACCDLSSCDLAWWFEGRCYLVSCPHKENCEPKKMGPIRSYLTFVLRPVQRPAQLLDYGDMMLNRGSPSGIWGDSPEDIRKDLTFLGKDWGLEEMSEYSDDYRELEKDLLQPSGKQEPRGSAEYTDWGLLPGSEGAFNSSVGDSPAVPAETQQDPELHYLNESASTPAPKLPERSVLLPLPTTPSSGEVLEKEKASQLQEQSSNSSGKEVLMPSHSLPPASLELSSVTVEKSPVLTVTPGSTEHSIPTPPTSAAPSESTPSELPISPTTAPRTVKELTVSAGDNLIITLPDNEVELKAFVAPAPPVETTYNYEWNLISHPTDYQGEIKQGHKQTLNLSQLSVGLYVFKVTVSSENAFGEGFVNVTVKPARRVNLPPVAVVSPQLQELTLPLTSALIDGSQSTDDTEIVSYHWEEINGPFIEEKTSVDSPVLRLSNLDPGNYSFRLTVTDSDGATNSTTAALIVNNAVDYPPVANAGPNHTITLPQNSITLNGNQSSDDHQIVLYEWSLGPGSEGKHVVMQGVQTPYLHLSAMQEGDYTFQLKVTDSSRQQSTAVVTVIVQPENNRPPVAVAGPDKELIFPVESATLDGSSSSDDHGIVFYHWEHVRGPSAVEMENIDKAIATVTGLQVGTYHFRLTVKDQQGLSSTSTLTVAVKKENNSPPRARAGGRHVLVLPNNSITLDGSRSTDDQRIVSYLWIRDGQSPAAGDVIDGSDHSVALQLTNLVEGVYTFHLRVTDSQGASDTDTATVEVQPDPRKSGLVELTLQVGVGQLTEQRKDTLVRQLAVLLNVLDSDIKVQKIRAHSDLSTVIVFYVQSRPPFKVLKAAEVARNLHMRLSKEKADFLLFKVLRVDTAGCLLKCSGHGHCDPLTKRCICSHLWMENLIQRYIWDGESNCEWSIFYVTVLAFTLIVLTGGFTWLCICCCKRQKRTKIRKKTKYTILDNMDEQERMELRPKYGIKHRSTEHNSSLMVSESEFDSDQDTIFSREKMERGNPKVSMNGSIRNGASFSYCSKDR
